Source: PubChem BioAssay AID504834 (National Center for Advancing Translational Sciences (NCATS), 2011)
Among all 320,000 compounds or so, about 22,000 (6.9%) were called active. Inconclusive results, whose numbers are uncertain, are shown with a selection of clear calls. Calls follow the shape of the dose curve; as a rule, active = well fitted inhibition curve with a large enough effect; inconclusive = small, poorly fitted or top-dose-only effect, or another doubt; inactive = no such curve, though single readings can be large or run the other way. Potencies of inconclusive entries are doubtful fits and often do not repeat.

Assay: Primary qHTS for delayed death inhibitors of the malarial parasite plastid, 96 hour incubation
Settings: P. falciparum luciferase reporter growth; series mostly up to 28.7 µM; activity change, negative = inhibition: at the top concentration
Summary of the method: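 Luminescence readout: decreased luciferase signal marks inhibited growth of reporter-expressing P. falciparum in infected red cells (2% hematocrit, 0.05% parasitemia final), exposed to compound two generations (96 h, 37 C, 5% CO2).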
% is scaled to controls: 0 for no effect and ±100 for the full control effect; potency is read from the fitted curve at half-maximal effect.

With CCCCCNc1nc(-c2ccccc2)nc(-n2ccnc2)n1 as the compound, how does the Potency read?
Its Potency is inconclusive: 18.5 µM [inhibitor, single point].

For O=C(Nc1ccccc1)c1cccnc1NCCc1ccccc1, which Potency is on record?
Its Potency is inconclusive: 0.522 µM [inhibitor, full curve, poor fit].

With CC1CCCCN1CCCNC(=O)Cn1c(=O)c2cccn2c2ccccc21 (centres undefined) as the compound, how does the Potency read?
Its Potency is inconclusive: 18.5 µM [inhibitor, single point].

With O=C(CNS(=O)(=O)c1cccs1)N1CCCC1 as the compound, how does the Potency read?
Its Potency is inconclusive: 14.7 µM [inhibitor, single point].

For Cc1ccc(OCCOCCN2CCN(C)CC2)c([N+](=O)[O-])c1, which Potency is on record?
The Potency was inconclusive: 5.86 µM [inhibitor, partial curve, poor fit].

With Oc1cccc(Nc2nc(-c3ccccc3Cl)nc3ccccc23)c1 as the compound, how does the “activity change, negative = inhibition” value read?
The value was inactive: -10.6%.

With COc1ccc(NC(=O)c2cccc(S(=O)(=O)N3CCCC3)c2)cc1OC as the compound, how does the Potency read?
The Potency was inconclusive: 1.17 µM [inhibitor, full curve].

Which Potency does the source give for Cn1cc(CN2CCCC(CO)C2)c(-c2ccc(Oc3ccccc3)cc2)n1 (centres undefined) here?
Its Potency is inconclusive: 18.5 µM [inhibitor, single point].

Which “activity change, negative = inhibition” value does the source give for CC(C)(C)n1ncc2c(=O)n(Cc3c(Cl)cccc3Br)cnc21 here?
Its value is inactive: -44.3%.

With CC1(C)C(/C=C/C=C/C=C/C=C2\N(CCCCS(=O)(=O)O)c3ccc4ccccc4c3C2(C)C)=[N+](CCCCS(=O)(=O)[O-])c2ccc3ccccc3c21 as the compound, how does the Potency read?
The Potency was inconclusive: 12 µM [inhibitor, partial curve].

Which Potency does the source give for Cc1cccc(NC(=O)CN2CCN(C(=O)c3oc4c(Cl)cccc4c3C)CC2)c1C here?
Its Potency is inconclusive: 13.1 µM [inhibitor, single point].

Which Potency does the source give for COc1cccc(NCc2cc(=O)oc3cc(-c4ccccc4)c(O)cc23)c1 here?
The Potency was inconclusive: 2.08 µM [inhibitor, full curve, poor fit].

With CC1CCCN(C(=O)c2ccc(Br)c(S(=O)(=O)N3CCOCC3)c2)C1 (centres undefined) as the compound, how does the Potency read?
The Potency was inconclusive: 13.1 µM [inhibitor, single point].

Which “activity change, negative = inhibition” value does the source give for O=C(c1ccc(Br)s1)N1CCN(c2ccccn2)CC1 here?
Its value is inactive: 240%.

Which Potency does the source give for CCOC(=O)c1ccc(NC(=O)CCSCCc2ccccn2)cc1 here?
The Potency was inconclusive: 0.262 µM [inhibitor, full curve].

Which “activity change, negative = inhibition” value does the source give for COc1cccc(NC(=O)CSC(N)=O)c1 here?
Its value is inactive: -29.6%.

Which “activity change, negative = inhibition” value does the source give for CCOC(=O)N1CCN(C(=O)c2sc3nc(-c4ccc(F)cc4)cn3c2C)CC1 here?
Its value is inactive: -4.74%.

Which Potency does the source give for CC1(C)OC(=O)C2(Cc3ccccc3N3CCCCC32)C(=O)O1 (centres undefined) here?
The Potency was inconclusive: 10.4 µM [inhibitor, single point].

For COc1ccc(NC(=O)c2ccc(NC(=O)COC(=O)CC(NC(=O)c3ccccc3Cl)c3ccccc3)cc2)cc1 (centres undefined), which “activity change, negative = inhibition” value is on record?
The value was inactive: 42.7%.

With O=C(Nc1cccc(S(=O)(=O)NC2=NCCC2)c1)c1ccccc1OC(F)F as the compound, how does the “activity change, negative = inhibition” value read?
Its value is inactive: 81.8%.

Which Potency does the source give for O=[N+]([O-])c1ccc(-c2cnc(NO)nc2)cc1 here?
Its Potency is inconclusive: 9.28 µM [inhibitor, single point].

Which Potency does the source give for OCC1(CCOc2ccccc2)CCN(Cc2ccc(OC(F)F)cc2)CC1 here?
The Potency was active: 10.4 µM.

Which “activity change, negative = inhibition” value does the source give for O=C(O)Cc1ccc(NC(=O)c2ccc(NC(=O)c3ccco3)cc2)cc1 here?
Its value is inactive: 8.6%.

Which “activity change, negative = inhibition” value does the source give for Cc1cc(NC(=O)CCC(=O)N(Cc2ccco2)C(C(=O)NC2CCCCC2)c2cccs2)no1 (centres undefined) here?
Its value is inactive: -7.99%.

Which Potency does the source give for O=C(O)c1ccc(N=NNc2cccc([N+](=O)[O-])c2)cc1 here?
Its Potency is inconclusive: 1.65 µM [inhibitor, partial curve, poor fit].

For O=C(CCN1C(=O)S/C(=C/c2ccc(F)cc2)C1=O)Nc1ccc(O)c(C(=O)O)c1, which Potency is on record?
The Potency was inconclusive: 20.8 µM [inhibitor, single point].

With COc1ccc(C2CC(c3ccccc3)=NN2C(=O)CSc2nccc(=O)[nH]2)cc1 (centres undefined) as the compound, how does the Potency read?
Its Potency is inconclusive: 16.5 µM [inhibitor, single point].

With Cc1c(CCC(=O)NCCCN2CCCC2=O)c(=O)oc2cc(O)ccc12 as the compound, how does the Potency read?
Its Potency is inconclusive: 20.8 µM [inhibitor, partial curve, poor fit].

Which Potency does the source give for O=c1cc(O)c(Cl)c[nH]1 here?
The Potency was inconclusive: 10.7 µM [inhibitor, single point].

For Cc1ccc(S(=O)(=O)N2CCCCC2C(=O)N2CCN(Cc3ccccc3)CC2)cc1 (centres undefined), which Potency is on record?
Its Potency is inconclusive: 18.5 µM [inhibitor, single point].

For O=C(NN1CCOCC1)c1cc(Cl)ccc1Cl, which “activity change, negative = inhibition” value is on record?
Its value is inactive: 0%.

Which “activity change, negative = inhibition” value does the source give for CN(Cc1cccs1)C(=O)CSc1nnnn1C here?
Its value is inactive: 31.9%.

With CCN(CC(=O)Nc1c(F)cccc1F)C(=O)c1n[nH]c2ccccc12 as the compound, how does the Potency read?
The Potency was inconclusive: 14.7 µM [inhibitor, single point].

With CCCCOP(=O)(c1ccc(N(C)C)cc1)C(O)c1ccc(C(C)C)cc1 (centres undefined) as the compound, how does the Potency read?
Its Potency is inconclusive: 18.5 µM [inhibitor, single point].

With Cc1ccc2nc(SCC(=O)N3CCC(Cc4ccccc4)CC3)nc(=O)n2c1 as the compound, how does the Potency read?
The Potency was inconclusive: 11.7 µM [inhibitor, partial curve].

With CCc1ccc(OCC(=O)Nc2ccncc2)cc1 as the compound, how does the Potency read?
The Potency was inconclusive: 18.5 µM [inhibitor, single point].

Which Potency does the source give for COc1ccccc1NC(=O)NCc1ccc2c(c1)OCO2 here?
The Potency was active: 14.7 µM.

Which Potency does the source give for O=C(NCC1CC1)c1onc(CSc2ccc(F)c(F)c2)c1C(=O)NCC1CC1 here?
Its Potency is inconclusive: 18.5 µM [inhibitor, single point].

With COc1ccc(NC2CCCN(C(=O)c3cc(CC(C)C)nc(N)n3)C2)cc1 (centres undefined) as the compound, how does the Potency read?
Its Potency is inconclusive: 0.657 µM [inhibitor, full curve, poor fit].

With Cc1cccc(OCCSc2ncnc3nc[nH]c23)c1 as the compound, how does the “activity change, negative = inhibition” value read?
The value was inactive: 120%.

Which Potency does the source give for COCc1ccc(C(=O)N2CCCC(C(=O)c3ccc(SC)cc3)C2)s1 (centres undefined) here?
The Potency was inconclusive: 13.1 µM [inhibitor, single point].

Which Potency does the source give for CCC(C)NCCOCCOc1ccc(Br)cc1C (centres undefined) here?
The Potency was inconclusive: 14.7 µM [inhibitor, single point].

Which “activity change, negative = inhibition” value does the source give for COc1cccc(CNC(=O)CCC2CCCN(Cc3cc(Cl)ccc3O)C2)c1 (centres undefined) here?
Its value is inactive: -6.37%.

With Cc1ccc(N=Cc2c(C)[nH]n(-c3ccccc3)c2=O)nc1 as the compound, how does the “activity change, negative = inhibition” value read?
Its value is inactive: 33.8%.

Which Potency does the source give for Cc1ccc2nc(NC(=O)C3CCN(S(=O)(=O)c4cc([N+](=O)[O-])ccc4Cl)CC3)sc2c1 here?
Its Potency is inconclusive: 18.5 µM [inhibitor, single point].

Which Potency does the source give for Cc1ccn2c(NC3CCCC3)c(-c3ccccn3)nc2c1 here?
Its Potency is inconclusive: 9.28 µM [inhibitor, single point].

With CCOC(=O)c1[nH]c2ccc(OC)cc2c1NC(=O)C(C)N1CCC2(CC1)OCCO2 (centres undefined) as the compound, how does the “activity change, negative = inhibition” value read?
The value was inactive: 62.8%.

For COc1cccc(-n2c(C)c(C(C)=O)c(C(C)=O)c2C)c1, which Potency is on record?
Its Potency is inconclusive: 13.1 µM [inhibitor, partial curve, poor fit].

Which Potency does the source give for O=C(NNC(=O)C12CC3CC(CC(C3)C1)C2)[C@@H]1C[C@H]1c1ccccc1 here?
The Potency was inconclusive: 18.5 µM [inhibitor, single point].

For Cc1ccc(Nc2ccc(S(=O)(=O)N3CCOCC3)cc2[N+](=O)[O-])c(C)c1, which “activity change, negative = inhibition” value is on record?
Its value is inactive: -99.4%.

With Cc1nn(C)c(C(=O)Nc2ccc3c(c2)OCO3)c1[N+](=O)[O-] as the compound, how does the Potency read?
The Potency was inconclusive: 18.5 µM [inhibitor, single point].

Which “activity change, negative = inhibition” value does the source give for Cc1ccc(-c2noc(CCC(=O)NCC3CCN(Cc4cccc(C)c4)CC3)n2)cc1 here?
Its value is inactive: 3.05%.

For O=C(CCC(=O)N1CCCC1)Nc1ccc(Cl)c(Cl)c1, which “activity change, negative = inhibition” value is on record?
Its value is inactive: 46.8%.

With CS(=O)(=O)n1nc(-c2ccc(Cl)cc2)nc1N as the compound, how does the “activity change, negative = inhibition” value read?
The value was inactive: -4.42%.

For CCOc1cc(CNc2ccc3c(c2)OCCO3)cc(Br)c1OC, which Potency is on record?
Its Potency is inconclusive: 2.62 µM [inhibitor, full curve, poor fit].

Which Potency does the source give for COc1cc(/C=C2\SC(=S)N(CC(=O)Nc3ccc(O)cc3)C2=O)cc(OC)c1OC here?
The Potency was inconclusive: 16.5 µM [inhibitor, single point].

Which “activity change, negative = inhibition” value does the source give for CCN(CC)c1ccc(/C=C(\C#N)C(N)=O)cc1 here?
The value was inactive: 1.07%.

With Cn1c(=O)[nH]c(=O)c2c1nc(CN1CCOCC1)n2Cc1ccccc1 as the compound, how does the Potency read?
The Potency was inconclusive: 18.5 µM [inhibitor, partial curve, poor fit].

Which Potency does the source give for Cc1noc(C)c1COc1cccc(C(=O)N(C)Cc2nc3ccccc3c(=O)[nH]2)c1 here?
Its Potency is inconclusive: 14.7 µM [inhibitor, partial curve, poor fit].

For O=C(c1cc2nc(-c3ccc(F)cc3)cc(C(F)(F)F)n2n1)N1CCCCC1c1cccnc1 (centres undefined), which “activity change, negative = inhibition” value is on record?
Its value is inactive: -50.8%.

Which Potency does the source give for CCc1nc(SCC(=O)NCc2ccco2)c2c(=O)n(C)c(=O)n(C)c2n1 here?
Its Potency is inconclusive: 11.7 µM [inhibitor, partial curve, poor fit].

Which Potency does the source give for Cc1cc(=O)oc2cc(OS(C)(=O)=O)ccc12 here?
The Potency was inconclusive: 18.5 µM [inhibitor, single point].

Which Potency does the source give for Cc1ccc(-c2nnc(SCC(=O)NC3CCS(=O)(=O)C3)nc2-c2ccc(C)cc2)cc1 (centres undefined) here?
The Potency was inconclusive: 14.7 µM [inhibitor, partial curve, poor fit].

For O=C(CCC1CCCCC1)NCCN1C2=NC[C@H](Cc3ccc(O)cc3)N2C[C@H]1Cc1ccc(O)cc1, which Potency is on record?
The Potency was inconclusive: 1.31 µM [inhibitor, full curve, poor fit].

Which “activity change, negative = inhibition” value does the source give for CC(C)OP(=O)(OC(C)C)C(NC(=O)c1ccccc1Br)C(N)=O (centres undefined) here?
The value was inactive: 57.8%.

For CCC(C)n1c(SCC(=O)NC(=O)c2cccn2C)nc2ccccc2c1=O (centres undefined), which Potency is on record?
Its Potency is inconclusive: 0.185 µM [inhibitor, full curve, poor fit].

Which Potency does the source give for Cc1ccc(NCC(=O)c2ccc([N+](=O)[O-])cc2)cc1 here?
The Potency was inconclusive: 9.28 µM [inhibitor, single point].

Which Potency does the source give for COc1ccc(-c2cc(C(=O)Nc3c(C)n(C)n(-c4ccccc4)c3=O)no2)cc1 here?
Its Potency is active: 8.28 µM.

For COc1cccc(Oc2cn[nH]c2-c2ccc(OCC(=O)NN)cc2O)c1, which Potency is on record?
Its Potency is inconclusive: 10.4 µM [inhibitor, partial curve].
